These are yes or no findings as the source states them, for the method shown. Binding seen in cells or lysates may run through a third protein. Some entries that bind do so weakly or less than the wild type. For some assays here: Sequences can lack the tags named with a protein.
Experiments:
[1] = biological target: T1, Flag-tagged ITPKB (inositol 1,4,5-triphosphate (IP3) kinase B), wild type (UniProt P27987); test: co-IP; Trim25 S100D and S100A mutants with ITPKB; HEK293T cells co-transfected with the respective plasmids, MG132 for 3 h after 48 h of transfection, lysates immunoprecipitated and blotted (told at the end of the legend, after panel e); which protein was precipitated is not told
T1 sequence: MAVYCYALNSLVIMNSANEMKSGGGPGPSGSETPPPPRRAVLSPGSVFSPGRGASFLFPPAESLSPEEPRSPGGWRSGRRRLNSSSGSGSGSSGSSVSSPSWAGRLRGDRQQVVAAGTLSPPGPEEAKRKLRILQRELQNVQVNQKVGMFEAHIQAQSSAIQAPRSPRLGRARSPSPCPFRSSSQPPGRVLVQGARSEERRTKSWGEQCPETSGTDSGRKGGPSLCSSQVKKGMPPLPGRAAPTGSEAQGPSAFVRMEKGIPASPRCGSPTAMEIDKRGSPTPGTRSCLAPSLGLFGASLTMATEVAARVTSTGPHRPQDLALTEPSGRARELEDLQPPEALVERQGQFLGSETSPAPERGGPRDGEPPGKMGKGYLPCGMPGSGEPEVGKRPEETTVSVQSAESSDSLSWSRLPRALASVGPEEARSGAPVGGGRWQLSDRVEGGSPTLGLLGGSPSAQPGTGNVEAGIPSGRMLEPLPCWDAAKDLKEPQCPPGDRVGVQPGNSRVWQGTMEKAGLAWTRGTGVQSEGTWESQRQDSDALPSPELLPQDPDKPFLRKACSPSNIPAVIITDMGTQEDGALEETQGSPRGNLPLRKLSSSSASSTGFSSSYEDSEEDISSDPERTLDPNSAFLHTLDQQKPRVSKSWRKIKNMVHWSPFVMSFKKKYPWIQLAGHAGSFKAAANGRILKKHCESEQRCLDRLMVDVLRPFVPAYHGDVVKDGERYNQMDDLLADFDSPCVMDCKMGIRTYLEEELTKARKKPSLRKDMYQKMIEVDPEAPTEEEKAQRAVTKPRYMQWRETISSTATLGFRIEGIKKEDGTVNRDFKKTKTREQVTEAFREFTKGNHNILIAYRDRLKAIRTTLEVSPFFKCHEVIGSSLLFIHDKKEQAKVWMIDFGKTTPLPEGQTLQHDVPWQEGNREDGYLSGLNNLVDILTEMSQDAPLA

By UniProt entry, the sequences of proteins in these tests, tags left out. Where a name states a change or a piece, a line headed by the entry shows the natural chain unless it says otherwise.
UniProt Q14258: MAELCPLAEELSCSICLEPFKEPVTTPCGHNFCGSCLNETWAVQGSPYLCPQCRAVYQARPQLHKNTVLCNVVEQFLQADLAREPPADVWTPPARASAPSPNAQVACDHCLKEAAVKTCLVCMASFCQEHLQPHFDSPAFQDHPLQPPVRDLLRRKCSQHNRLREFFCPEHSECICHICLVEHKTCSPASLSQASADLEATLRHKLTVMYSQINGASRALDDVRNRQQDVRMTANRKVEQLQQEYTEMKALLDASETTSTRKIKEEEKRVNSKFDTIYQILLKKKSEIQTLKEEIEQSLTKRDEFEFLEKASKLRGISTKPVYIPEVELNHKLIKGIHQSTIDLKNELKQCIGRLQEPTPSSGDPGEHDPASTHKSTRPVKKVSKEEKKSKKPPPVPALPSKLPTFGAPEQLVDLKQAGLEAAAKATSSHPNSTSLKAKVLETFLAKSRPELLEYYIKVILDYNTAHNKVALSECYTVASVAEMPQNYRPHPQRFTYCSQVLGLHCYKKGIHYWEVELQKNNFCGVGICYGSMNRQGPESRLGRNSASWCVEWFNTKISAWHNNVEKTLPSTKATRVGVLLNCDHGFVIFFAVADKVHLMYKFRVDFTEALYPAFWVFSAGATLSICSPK

[2] = biological target: T1, Flag-tagged ITPKB (inositol 1,4,5-triphosphate (IP3) kinase B), wild type; test: co-IP; HEK293T cells transfected with Flag-ITPKB (WT or truncations) and V5-Trim25; lysates precipitated with Anti-FLAG M2 magnetic beads, blotted; NETN buffer, overnight at 4 °C; in one panel cells pretreated with 100 μM TMZ, then 50 μM MG132 for 3 h
[3] = biological target: Trim25, endogenous (human (endogenous in T98G, U118, T98G-R, U118-R, HEK293T)) (UniProt Q14258); test: co-IP; endogenous proteins; lysates of TMZ-sensitive (T98G, U118) and resistant (T98G-R, U118-R) glioma cells precipitated with control IgG or anti-Trim25 antibody and protein A/G magnetic beads, NETN buffer (20 mM Tris-HCl pH 8.0, 500 mM NaCl, 1 mM EDTA, 0.5% NP-40), overnight at 4 °C; also T98G and U118 after 100 μM TMZ for 48 h
[4] = biological target: Trim25, endogenous (human (endogenous in T98G, U118, T98G-R, U118-R, HEK293T)) (UniProt Q14258); test: proximity ligation; Duolink in situ PLA with Trim25 and ITPKB antibodies on fixed, permeabilised TMZ-sensitive and resistant glioma cells; dots counted with ImageJ

## Trim25 S100A mutant (from UniProt Q14258 1-630) (enzyme)
[1]
  binding: binds

## Trim25 S100D mutant (from UniProt Q14258 1-630) (enzyme)
[1]
  binding: binds

## V5-tagged Trim25, wild type (from UniProt Q14258 1-630) (enzyme)
[2]
  binding: binds

B1: ITPKB, endogenous (enzyme, UniProt P27987 1-946)
chain: T1 sequence
[3]
  binding: binds
[4]
  binding: binds
